US12031897B2, “Target-locking single-molecule nanoscopy” (Memorial Sloan Kettering Cancer Center, priority 2019, dated 2024)
Some of these results come from one statement about several compounds together. For at least one compound, name, drawing or mass did not settle the structure. Some compounds share one range, which may span the group rather than tell each member.

System: Pou5f1 transcription site (MCP-mNeonGreen nascent RNA)
Assay: MCP-mNeonGreen nascent transcription at the endogenous Pou5f1 locus in mESCs (live-cell imaging)
Assay type: cell-based, mouse
Settings: 10 μM flavopiridol, 10 μM triptolide or 1 μM JQ1, mean±S.D.
Description: All the mESCs were cultured and maintained in +2i media with appropriate selection drugs on 0.1% gelatin-coated dishes, at 37° C. in a humidified 5% CO2 incubator. +2i media contain D-MEM (Thermo Fisher Scientific 10313021), 15% fetal bovine serum (Gemini Bio 100-500), 0.1 mM β-mercaptoethanol (Thermo Fisher Scientific 21985023), 2 mM L-alanyl-L-glutamine (Thermo Fisher Scientific 35050079), 1×MEM nonessential amino acids (Thermo Fisher Scientific 11140076), 1000 U/mL LIF (Millipore ESG1107), […] (Millipore 361559) and 1 μM PD0325901 (Axon Medichem 1408). OMG and NMG SNAP-Rpb1 cells were cultured with +2i media plus 3 μg/ml α-amanitin.
Before imaging, cells were seeded onto 8-chamber coverglass (LabTek, 155411) coated with 5 μg/ml laminin (BioLamina LN511), in −2i media (OMG) or +2i media (NMG) and appropriate drugs. […]
Wide-Field Cell Imaging Experiments. […] The CCD data were analyzed using IDL 6.4 (ITTVIS). Maximum projection images were calculated for each stack, and the resulting 11 sec/frame movie was used to track the intensities of individual tdPCP-EGFP-tagged transcription sites. […] The auto-correlation function was calculated (for the tdPCP-EGFP fluctuation analysis), or the data were imported in Origin 8.5.0 (OriginLab) and the trace fitted to a single-exponential decay (for the transcription inhibition experiments).

SMILES: Cc1sc2c(c1C)C(c1ccc(Cl)cc1)=N[C@@H](CC(=O)OC(C)(C)C)c1nnc(C)n1-2 [JQ1]
- MCP-mNeonGreen exponential decay time: 340 to 380 s
